Taken from: PubChem BioAssay AID1159584 (Peter MacCallum Cancer Centre, 2016)
Aim: 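Knock-downs that harm CDH1-null cells more than parental MCF10A cells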 (primary screen). Cells: human MCF10A breast epithelial cells, parental and CDH1-null. Knock-down reagent: siRNA against human genes. Detection: 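ATP luminescence (CellTiter-Glo) viability per line relative to mean mock wells over all plates, and the ratio of CDH1-null to parental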. Direction: CDH1-null / parental viability ratio: higher = CDH1-null cells survive relatively better than parental.
Here is a random part of about 18,000 reagents tested. Further read-outs or replicates are left out here. The record does not give: the amount of reagent, the time to read-out.

gene	PubChem SID	CDH1-null / parental viability ratio
CEP43 (GeneID 11116)	SID152153783	1.16
GABRB1 (GeneID 2560)	SID134311587	1.28
RPS19 (GeneID 6223)	SID134310070	1.2
LCE1B (GeneID 353132)	SID134322839	1.48
IFT27 (GeneID 11020)	SID134314296	1.18
GKN1 (GeneID 56287)	SID152153559	0.97
AGRP (GeneID 181)	SID134315561	1.2
BCL2L12 (GeneID 83596)	SID152154896	1
ICMT (GeneID 23463)	SID152151028	0.76
OOSP2 (GeneID 219990)	SID134322317	1.05
PSEN1 (GeneID 5663)	SID134310708	1.07
RDH5 (GeneID 5959)	SID152155593	0.9
SF1 (GeneID 7536)	SID134316924	1.12
MSX2 (GeneID 4488)	SID152147111	1.01
SNX9 (GeneID 51429)	SID152147061	0.85
RP2 (GeneID 6102)	SID56479260	1.09
PTOV1 (GeneID 53635)	SID152152632	1.28
WDR38 (GeneID 401551)	SID152154806	0.86
C9orf163 (GeneID 158055)	SID135623203	0.93
ADGRF3 (GeneID 165082)	SID135621017	1.34
ZCCHC3 (GeneID 85364)	SID152149251	1.13
HIVEP2 (GeneID 3097)	SID152150324	0.78
SLC38A7 (GeneID 55238)	SID152150955	1.06
PIKFYVE (GeneID 200576)	SID152154410	0.87
SACK1C (GeneID 128876)	SID152152024	0.94
CLEC16A (GeneID 23274)	SID135624305	1.2
PRR36 (GeneID 80164)	SID152147439	1.12
RABEP2 (GeneID 79874)	SID135621691	0.97
MYLK3 (GeneID 91807)	SID152154935	0.84
PRPF31 (GeneID 26121)	SID135624004	1.36
TLCD5 (GeneID 219902)	SID134321709	0.8
FPGS (GeneID 2356)	SID152151732	0.71
CFAP65 (GeneID 255101)	SID135623721	0.98
ANKRD33 (GeneID 341405)	SID134322733	0.9
DHFR (GeneID 1719)	SID152146849	1.21
OTOR (GeneID 56914)	SID134321327	0.91
AKAP12 (GeneID 9590)	SID134314828	1.09
LONRF2 (GeneID 164832)	SID152151519	1.02
DGKA (GeneID 1606)	SID152151940	1
CAB39 (GeneID 51719)	SID134319452	1.27
UBQLNL (GeneID 143630)	SID135623085	0.91
TASOR (GeneID 23272)	SID152146964	0.88
CRYGN (GeneID 155051)	SID135623263	0.87
GINM1 (GeneID 116254)	SID152153317	1.09
FHL3 (GeneID 2275)	SID152155357	0.98
IFNAR2 (GeneID 3455)	SID134319456	0.98
PDHX (GeneID 8050)	SID134314468	1.06
PROKR1 (GeneID 10887)	SID134311033	0.82
CHEK2 (GeneID 11200)	SID152153325	1.02
ARHGAP11A (GeneID 9824)	SID134324729	0.88
KRTAP10-8 (GeneID 386681)	SID134329140	0.99
FOXE3 (GeneID 2301)	SID152148579	0.93
RHPN1 (GeneID 114822)	SID152152114	0.92
SLC10A5 (GeneID 347051)	SID152150221	0.88
HSD17B11 (GeneID 51170)	SID135621660	0.84
MAOB (GeneID 4129)	SID152154967	0.85
PCDH19 (GeneID 57526)	SID135624475	1.07
SPARCL1 (GeneID 8404)	SID152150171	1.38
RTKN2 (GeneID 219790)	SID134320645	0.9
LINC02914 (GeneID 283598)	SID135623641	1
FAM156A (GeneID 29057)	SID152152270	0.82
SRSF10 (GeneID 10772)	SID135622419	1.05
STATH (GeneID 6779)	SID135622362	1.1
SERP1 (GeneID 27230)	SID152155557	1.31
STX1B (GeneID 112755)	SID134319202	1.29
NKG7 (GeneID 4818)	SID134320059	1.13
ALDH3A2 (GeneID 224)	SID135621760	0.84
CCN3 (GeneID 4856)	SID134315027	1.05

A stretch from the list above, as a working copy:
gene	PubChem SID	CDH1-null / parental viability ratio
ZCCHC3 (GeneID 85364)	SID152149251	1.13
HIVEP2 (GeneID 3097)	SID152150324	0.78
SLC38A7 (GeneID 55238)	SID152150955	1.06
